Values from PubChem BioAssay AID1259308 (NCATS, 2017)
The whole screen tested about 59,000 reagents; below is a random part of them. About 1,510 of them (2.6%) count as active. 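Calls use total luciferase alone and ignore viability, so some active siRNAs may act by altering cell number.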 Unmarked entries are inactive. The numbers tell different reagents against one gene apart. Further read-outs or replicates are left out here.

Test: 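Genes whose loss raises luciferase production in HEK293 cells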 (primary screen)
System: human HEK293 embryonic kidney cells stably expressing firefly luciferase (HEK-CMV-Luc2-Hygro)
Reagent: single siRNA against human genes, 0.8 pmol siRNA per well
Timing: 72 h
Read-out: 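Reporter luminescence and viable-cell signal on separate replicate plates, given as percent of non-targeting control and median/MAD z-scores, plus per-cell luciferase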
Direction: total luciferase, z-score: higher = more reporter protein produced
Rule for the call: 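Active when the median/MAD z-score for overall luciferase is greater than 3; a gene was taken forward for validation with new siRNAs if at least two of its three siRNAs passed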
Meaning of the calls: active = raised luciferase; inactive = no rise

After knock-down of GPC4 (GeneID 2239) #1 the results were total luciferase, z-score -0.0514. With knock-down of GPC4 (GeneID 2239) #2, the record shows total luciferase, z-score 1.98. Against GPC4 (GeneID 2239) #3, the entry reads total luciferase, z-score 2.75. Knock-down of ADAMTS15 (GeneID 170689) #1 gave: total luciferase, z-score 0.669. With knock-down of ADAMTS15 (GeneID 170689) #2, the screen gave total luciferase, z-score -0.363. ADAMTS15 (GeneID 170689) #3 gave total luciferase, z-score -0.729.

Silencing of LRRC3B (GeneID 116135) #1 came out at: total luciferase, z-score 0.443. LRRC3B (GeneID 116135) #2 gave total luciferase, z-score 0.593. Silencing of LRRC3B (GeneID 116135) #3 came out at: total luciferase, z-score -0.135. LRP2BP (GeneID 55805) #1 scored total luciferase, z-score 0.31. For LRP2BP (GeneID 55805) #2 the deposit lists total luciferase, z-score -0.573. With knock-down of LRP2BP (GeneID 55805) #3, the record shows total luciferase, z-score 0.953.

FAM180B (GeneID 399888) #1 showed total luciferase, z-score -2.02. Against FAM180B (GeneID 399888) #2, the values are total luciferase, z-score 0.0902. Knock-down of FAM180B (GeneID 399888) #3 came out at: total luciferase, z-score 1.75. Against PIH1D1 (GeneID 55011) #1 the deposit lists total luciferase, z-score -0.31. For PIH1D1 (GeneID 55011) #2 the deposit lists total luciferase, z-score 0.504. Silencing of PIH1D1 (GeneID 55011) #3 came out at: total luciferase, z-score -2.41.

Silencing of PITX3 (GeneID 5309) #1 came out at: total luciferase, z-score -0.338. Against PITX3 (GeneID 5309) #2, the entry reads total luciferase, z-score 0.73. Depletion of PITX3 (GeneID 5309) #3 came out at: total luciferase, z-score 0.973. Knock-down of RAB31 (GeneID 11031) #1 came out at: total luciferase, z-score -0.406. Depletion of RAB31 (GeneID 11031) #2 resulted in: total luciferase, z-score 4.03 (active). RAB31 (GeneID 11031) #3 showed total luciferase, z-score 5.59 (active).

As entered above.
For “total luciferase, z-score”, PIH1D1 (GeneID 55011) #2 shows 0.504
Entry for LRRC3B (GeneID 116135) #1 under “total luciferase, z-score”: 0.443
For “total luciferase, z-score”, FAM180B (GeneID 399888) #3 reads 1.75

The results go on.
Depletion of URAD (GeneID 646625) #1 came out at: total luciferase, z-score -0.159. For URAD (GeneID 646625) #2, the values are total luciferase, z-score 0.302. Depletion of URAD (GeneID 646625) #3 came out at: total luciferase, z-score 0.5. After knock-down of UFSP2 (GeneID 55325) #1 the results were total luciferase, z-score 0.879. With knock-down of UFSP2 (GeneID 55325) #2 the results were total luciferase, z-score -0.876. Against UFSP2 (GeneID 55325) #3, the entry reads total luciferase, z-score -1.42.

Knock-down of TNP1 (GeneID 7141) #1 gave: total luciferase, z-score 1.17. TNP1 (GeneID 7141) #2 showed total luciferase, z-score -0.768. With knock-down of TNP1 (GeneID 7141) #3, the screen gave total luciferase, z-score 0.803. CDK16 (GeneID 5127) #1 gave total luciferase, z-score -0.765. After knock-down of CDK16 (GeneID 5127) #2, the record shows total luciferase, z-score -0.209. For CDK16 (GeneID 5127) #3 the deposit lists total luciferase, z-score -0.214.

After knock-down of TRAF5 (GeneID 7188) #1, the record shows total luciferase, z-score -0.818. With knock-down of TRAF5 (GeneID 7188) #2, the record shows total luciferase, z-score 1.45. With knock-down of TRAF5 (GeneID 7188) #3 the results were total luciferase, z-score -0.312. C19orf25 (GeneID 148223) #1 showed total luciferase, z-score 0.567. With knock-down of C19orf25 (GeneID 148223) #2, the screen gave total luciferase, z-score 1.17. C19orf25 (GeneID 148223) #3 scored total luciferase, z-score 0.234.
